Sequences and labels used below:
B1: tRNA (parent)
chain: GUUCCGUUGGCGUAAUGGUAACGCGUCUCCCUCCUAAGGAGAAGACUGCGGGUUCGAGUCCCGUACGGAACG

Variants at the floor of the assay are shown more often than the library holds them.

In this series the parent is B1. Description: yeast fitness relative to wild type (ratio to wild type); higher = fitter; tRNA-Arg(CCU), competitive growth, 37 C, YPD. An outline of the steps: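 Start and end populations of a pooled competition were compared by 100-nucleotide paired-end sequencing of gene amplicons. The Saccharomyces cerevisiae strains carried tRNA-Arg(CCU) gene variants at the native genomic locus, synthesised with a 3% per-site mutation rate at 69 sites, and competed in YPD at 37°C for 24 hours in six parallel replicates. Darwinian fitness relative to wild type was based on the change in genotype frequencies. Genotypes required ≥ 100 starting reads, and estimates < 0.5 were set to 0.5.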
Consider G10A C27U A40C U47A G48C C61U, for which the yeast fitness is ≤ 0.5. For the variant C4A U26C U32A C34U G38C G51A A57C C66U, the yeast fitness was ≤ 0.5. Take C30U U54A G63A: the yeast fitness was determined as 0.704. On to U3A C22A C33G A37C G50A, for which the yeast fitness was ≤ 0.5.

As to C27U C30U A42C A69U A70C, the yeast fitness was ≤ 0.5. The figure for C5A C11G A21U A57C is ≤ 0.5; for A40G C66U it is 0.792; for C49U A69U it is 1.01. The figure for C27G A37U G48A is ≤ 0.5; for G9A U28C G44A G51C G58C it is 0.51. For U19A C27U A65U the value was 0.717. Take C11U A15U C33A: the yeast fitness was ≤ 0.5. For U2A C27G C31A C34A G38C C49G the value was ≤ 0.5; for A15G G25A U32G A40G C60G, 0.501; for U2C C4G C22U C30A A65U, ≤ 0.5. Take G10C U47C: the yeast fitness amounted to 0.695. As to A14G A20C C27A, the yeast fitness is ≤ 0.5. Consider A20C A45C C46U, for which the yeast fitness is 0.587. The figure for C4G C27G A65G A69G is ≤ 0.5. The figure for U16A C22A C24G is ≤ 0.5; for C4U G23C G51A A69G it is 0.586; for G6C C11G A15C G25C C27G C30G G38C U47A C60G A70G it is ≤ 0.5.

Regarding U2C A20G C27G A37C G38C A43G C55A U64G, the yeast fitness is ≤ 0.5.

G10A A21C C24A: the yeast fitness was ≤ 0.5. As for A21U C30G C31U G48C, the yeast fitness amounted to 0.753.

On to A15U A43U A69C, for which the yeast fitness was determined as 0.697. With U7A U8G C22U C30U A42G C61A, the yeast fitness was ≤ 0.5. The figure for G25A A43U G56A G68C is ≤ 0.5.

Regarding A15C A21U C24U A65U G68A, the yeast fitness was ≤ 0.5. For G12A A43U C60U A69U, the yeast fitness was ≤ 0.5.

For G44A A45G G51C C66U A69C, the yeast fitness amounted to 0.576.

Consider G17C C30U A36G A70G, for which the yeast fitness was ≤ 0.5. The figure for C22G C31G U35A A42U C49U C55G C61U A65C is ≤ 0.5; for U2C U19C A36U A37G C66G it is ≤ 0.5; for C11U U35A A43C it is ≤ 0.5.

In the case of G9C G23A C24A C55A, the yeast fitness is ≤ 0.5. Regarding C5A U16A A45G G50A U59A C66A, the yeast fitness was ≤ 0.5. Consider G17A U19A G23A C31U C34A, for which the yeast fitness was ≤ 0.5.

For G9A G10A C24A G44A, the yeast fitness was ≤ 0.5.

For G25C U53A C61A, the yeast fitness was ≤ 0.5. In the case of A14U A36C G50A, the yeast fitness was ≤ 0.5. For C11A A21G C22G C29G C62U the value was ≤ 0.5. For U2G A37C G41A C49U C60G A65G the value was ≤ 0.5; for C31U C60U G67A A69U, ≤ 0.5.

As to C30A G38C G41A G56C G63A, the yeast fitness was ≤ 0.5. For C11U A15C C27A G39C G48C C66U, the yeast fitness was ≤ 0.5. As to C11U A21C A43G, the yeast fitness is ≤ 0.5. On to U26G C46G, for which the yeast fitness is 0.807.

Regarding U7A C46A G50C G58A, the yeast fitness is ≤ 0.5. The figure for U2A C4G C5G A36G is ≤ 0.5.

For the variant U7A G9A C24A G68C, the yeast fitness is ≤ 0.5.

Regarding C5U U13G G44A G58C, the yeast fitness is ≤ 0.5. The figure for C30A A40C is 0.712; for U3A A14G A15G A20U A37G G41A A69C it is ≤ 0.5. The figure for G6C A15G C22A C29G A37C G50C C66U is ≤ 0.5; for C11U G52U C55A it is ≤ 0.5; for C22A G50A G68C it is ≤ 0.5.

For C4A U13A A69C, the yeast fitness was ≤ 0.5. The figure for G12C U32C A65G is 0.569.

For the variant A15C C22A A42C C46A A65U, the yeast fitness is ≤ 0.5. For A21C G23A A37C G58C the value was ≤ 0.5. For U2G U28C C66U the value was ≤ 0.5; for C4G G9A U32C C33U C49G, ≤ 0.5. As to G18A C30U C62A, the yeast fitness is ≤ 0.5. For C22G C24G C29U C33U A37C U54G A65U G67A the value was ≤ 0.5; for C24G C34U A36C C66U, ≤ 0.5. As to C11A C22U U26G A40U G48C, the yeast fitness amounted to 0.537.

C5U A15U A45U G68C: the yeast fitness was ≤ 0.5. On to G51C U53A A65U, for which the yeast fitness is ≤ 0.5. The figure for C4U G10C A14C C27G U53A is ≤ 0.5. As to G12A U19C G23C, the yeast fitness is ≤ 0.5. The figure for C22U C31G C49U A65G is ≤ 0.5.

As for A21U U28G C55G A65C, the yeast fitness is ≤ 0.5. U3A C4A C24G C29A G50C A57C: the yeast fitness was ≤ 0.5. For G12C A15C C24U the value was ≤ 0.5. For U2C C11G C22G G56A G63A, the yeast fitness is ≤ 0.5. With C22U G52A C60G A70U, the yeast fitness is ≤ 0.5.

Take A21U A45U U53A C62U G68C: the yeast fitness is ≤ 0.5. For U7A C30G A37G A43G the value was ≤ 0.5; for G6C U7G G17C G58C G63C, ≤ 0.5. The figure for U7A G44C C49A is ≤ 0.5. For G25A C55G G58A, the yeast fitness was ≤ 0.5. In the case of G9A C30A G38A A42C U53A C62G, the yeast fitness was ≤ 0.5.

Consider C5A A15C U35G, for which the yeast fitness was ≤ 0.5. Turning to U8A A20G C29U G51C, the yeast fitness is ≤ 0.5. As for A57C C62U, the yeast fitness turned out to be 0.565.

In the case of C11G C27U G67C, the yeast fitness was ≤ 0.5.

Turning to A42C G63C, the yeast fitness came out at 0.681. On to A37G G38C A65U, for which the yeast fitness is ≤ 0.5. Regarding U8A G44A U64C C66A, the yeast fitness was ≤ 0.5. The figure for A20C C30G C33G is ≤ 0.5; for A20U G23U A43C A57U G63A it is ≤ 0.5; for G17C G44A A45C it is ≤ 0.5. The figure for A20U A42C G50C G67C is ≤ 0.5. On to C4G C5G C29A C34U A42U G50C G67A, for which the yeast fitness is ≤ 0.5. Regarding U7C A21U A36U A37C C49U, the yeast fitness was ≤ 0.5. For A14U U19A G39A G67U the value was ≤ 0.5. For the variant A14C C22G G67A, the yeast fitness was ≤ 0.5. Regarding C5G G50A G51A, the yeast fitness was ≤ 0.5.

For the variant U2C G9U G12A A20C A57G A65C, the yeast fitness was ≤ 0.5.

G6A C29G U32C A69G: the yeast fitness is ≤ 0.5. The figure for C4A U8C U13C A20G C31G G44C U54C A69U is ≤ 0.5; for C29G A42C G67C it is ≤ 0.5.

Consider C33G A43G A45U C55U A65C, for which the yeast fitness is ≤ 0.5. The figure for A40C G51A C62U is ≤ 0.5; for C31G U35A C62G G67U it is ≤ 0.5.

Turning to C4A C31A G52C A65U, the yeast fitness is ≤ 0.5. For C5A G6C G63A the value was ≤ 0.5; for C11G C27U C33G A69U, ≤ 0.5.

As for G39A C60U U64A, the yeast fitness is ≤ 0.5. For G41A C55U U59A A70U the value was ≤ 0.5; for G12C C33G C46A C61A, ≤ 0.5; for U13A A20G A45C C66G, ≤ 0.5. Consider G17C A57U G67C, for which the yeast fitness was ≤ 0.5. Regarding C5U A37U U54A, the yeast fitness is ≤ 0.5. For C31U U35C A37C U47G G63A A65G A70C, the yeast fitness was ≤ 0.5. With C5U A15U G17C U26C, the yeast fitness was ≤ 0.5.

In the case of U2A C5G, the yeast fitness was 0.728. For G6C G23A C34U G51C the value was ≤ 0.5; for G10C C27G C46G A65G, ≤ 0.5; for C22G C30U C49A G52A C61G A70U, ≤ 0.5. Turning to U7G A21U C29A C55A, the yeast fitness was 0.604. For U8C C22G G39A A42U A57C the value was ≤ 0.5; for C11G C24G C30G C34U A43C G56C, ≤ 0.5; for G9C C30A C46A G48C, ≤ 0.5. For C5U A14G A21U G56C G68C the value was ≤ 0.5.

As to U7A G51A G58C G68A, the yeast fitness is ≤ 0.5.

As to C4A G41A C55U, the yeast fitness was ≤ 0.5.

On to A20U C33U G38C A40U G44C G51C C60U A69G, for which the yeast fitness is ≤ 0.5. For G23C U28A G44C G56A C62G the value was ≤ 0.5; for U26C C27U C31G A43C, ≤ 0.5; for C4U C22G C30U A37G A43U G67A, ≤ 0.5. For U64C A70C, the yeast fitness stood at 0.967. For C4U C24G U26A U28G C66U the value was ≤ 0.5; for U28C C55U C62A, ≤ 0.5; for A57U G63A A70U, ≤ 0.5.

As for C24G C49U C61A A70U, the yeast fitness was ≤ 0.5. For U3C C5G A15U A21C G39C the value was ≤ 0.5; for C22U C49G, 0.87. For U8A A14G G18C C61A the value was ≤ 0.5; for C27U C33G A43G U47C A57G C61U C62U, ≤ 0.5. For A14U A15G the value was 0.725; for G10C U35G A43C U47C C55U C62U A69C, ≤ 0.5; for C11A G18A U28G C34U, ≤ 0.5. In the case of U7G A14U, the yeast fitness is 0.675. The figure for C5A A15C C33A C34U A36C is ≤ 0.5. For A14U G23U G68C the value was 0.514; for C4G U16C A36U U54G, ≤ 0.5; for G6A A14G C22G U35G A40C A70G, ≤ 0.5. The figure for A37C U47G U53A is 0.535; for A43G U53G C55A G56C A57G G58A U59G C60U A65C it is ≤ 0.5. With U47A C55G C66G, the yeast fitness stood at 0.639.

Take U13A U59C C66A: the yeast fitness is ≤ 0.5. For the variant G10C G12C G39A A69U, the yeast fitness is ≤ 0.5.

A57U C66U G68C A69U: the yeast fitness is ≤ 0.5.

On to C27G A42C A57C A65C, for which the yeast fitness was ≤ 0.5. For G6C G9C U26C A43C C46U the value was ≤ 0.5; for C11A U16C C31U, ≤ 0.5.

With C5A G6C A69C, the yeast fitness was ≤ 0.5.

Turning to U32A C33G G52C G56A, the yeast fitness is ≤ 0.5. The figure for C46G G56C G68U is ≤ 0.5. The figure for C4U C27G C60G A70C is ≤ 0.5. For U19C A37C A40G G52C U59C A65U the value was ≤ 0.5; for U8C C11G C66G, ≤ 0.5. Turning to A14G G18C C31A, the yeast fitness is ≤ 0.5. In the case of C4A G17A C46G A65G, the yeast fitness is ≤ 0.5.

Consider C22U C27G A40C C49A A70U, for which the yeast fitness was ≤ 0.5.
